PubChem BioAssay AID1259254, NCATS – 2017
Shown is a random part of about 59,000 deposited reagents. About 1,550 of all reagents (2.6%) were called active. 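G2 share is only a proxy for re-replication; each gene was hit by three separate siRNAs, and active genes were retested.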 The numbers tell different reagents against one gene apart. Further read-outs or replicates are left out here. Not stated in the record: the amount of reagent.

Aim: 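Genome-wide screen for genes that prevent DNA re-replication in cancer cells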 (primary screen)
Cell system: human HCT116 colorectal cancer cells
Knock-down reagent: single siRNA against human genes
Time to read-out: 3 days
Measured: 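Imaged Hoechst DNA stain sorts each cell into a cycle phase by DNA amount; per plate, G2 fraction set to 0% for non-targeting and 100% for GMNN siRNA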
Reading the numbers: G2 robust z-score and G2 cells, % of GMNN control: higher = more G2 cells, more excess DNA replication
Call rule: 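Active siRNAs have a G2 robust z of 5 or more median absolute deviations over the median, which in these data means about 38% or higher of GMNN control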

The opening 4 records as a preview:
target gene	reagent no.	G2 robust z-score	G2 cells, % of GMNN control	Call
RSL24D1P11 (ribosomal L24 domain containing 1 pseudogene 11)	1	3.22	25.6	inactive
RSL24D1P11 (ribosomal L24 domain containing 1 pseudogene 11)	2	-0.024	2.8	inactive
RSL24D1P11 (ribosomal L24 domain containing 1 pseudogene 11)	3	-0.279	1.01	inactive
CLN3 (CLN3 lysosomal/endosomal transmembrane protein, battenin)	1	-0.384	0.266	inactive

The listing, from the start:
target gene	reagent no.	G2 robust z-score	G2 cells, % of GMNN control	Call
RSL24D1P11 (ribosomal L24 domain containing 1 pseudogene 11)	1	3.22	25.6	inactive
RSL24D1P11 (ribosomal L24 domain containing 1 pseudogene 11)	2	-0.024	2.8	inactive
RSL24D1P11 (ribosomal L24 domain containing 1 pseudogene 11)	3	-0.279	1.01	inactive
CLN3 (CLN3 lysosomal/endosomal transmembrane protein, battenin)	1	-0.384	0.266	inactive
CLN3 (CLN3 lysosomal/endosomal transmembrane protein, battenin)	2	-1.51	-7.68	inactive
CLN3 (CLN3 lysosomal/endosomal transmembrane protein, battenin)	3	1.4	12.8	inactive
TMEM185A (transmembrane protein 185A)	1	-1.07	-4.54	inactive
TMEM185A (transmembrane protein 185A)	2	-0.601	-1.26	inactive
TMEM185A (transmembrane protein 185A)	3	0.17	4.16	inactive
SDC1 (syndecan 1)	1	3.03	24.3	inactive
SDC1 (syndecan 1)	2	-1.4	-6.87	inactive
SDC1 (syndecan 1)	3	0.435	6.03	inactive
CHAF1B (chromatin assembly factor 1 subunit B)	1	-1.13	-4.98	inactive
CHAF1B (chromatin assembly factor 1 subunit B)	2	2.15	18.1	inactive
CHAF1B (chromatin assembly factor 1 subunit B)	3	-1.18	-5.32	inactive
SLC2A7	1	-0.388	0.235	inactive
SLC2A7	2	-0.865	-3.12	inactive
SLC2A7	3	4.86	37.2	inactive
FOXH1 (forkhead box H1)	1	-0.989	-3.99	inactive
FOXH1 (forkhead box H1)	2	-0.256	1.17	inactive
FOXH1 (forkhead box H1)	3	2.96	23.8	inactive
HOXC12 (homeobox C12)	1	1.04	10.3	inactive
HOXC12 (homeobox C12)	2	-0.859	-3.08	inactive
HOXC12 (homeobox C12)	3	-1.29	-6.14	inactive
IRF2 (interferon regulatory factor 2)	1	-0.288	0.938	inactive
IRF2 (interferon regulatory factor 2)	2	-0.938	-3.63	inactive
IRF2 (interferon regulatory factor 2)	3	0.443	6.09	inactive
SPINK9 (serine peptidase inhibitor Kazal type 9)	1	0.468	6.26	inactive
SPINK9 (serine peptidase inhibitor Kazal type 9)	2	-0.276	1.03	inactive
SPINK9 (serine peptidase inhibitor Kazal type 9)	3	-0.636	-1.51	inactive
H4C12 (H4 clustered histone 12)	1	0.89	9.23	inactive
H4C12 (H4 clustered histone 12)	2	-0.438	-0.115	inactive
H4C12 (H4 clustered histone 12)	3	1.25	11.8	inactive
CCNQ (cyclin Q)	1	-0.0847	2.37	inactive
CCNQ (cyclin Q)	2	3.14	25.1	inactive
CCNQ (cyclin Q)	3	-1.05	-4.44	inactive
TSPAN1 (tetraspanin 1)	1	-1.22	-5.6	inactive
TSPAN1 (tetraspanin 1)	2	-0.0608	2.54	inactive
TSPAN1 (tetraspanin 1)	3	-0.49	-0.482	inactive
ZNF480 (zinc finger protein 480)	1	0.713	7.99	inactive
ZNF480 (zinc finger protein 480)	2	-0.333	0.624	inactive
ZNF480 (zinc finger protein 480)	3	-0.982	-3.94	inactive
CD68 (CD68 molecule)	1	0.719	8.02	inactive
CD68 (CD68 molecule)	2	-0.839	-2.93	inactive
CD68 (CD68 molecule)	3	-0.317	0.738	inactive
CENPBD2P (CENPB DNA-binding domains containing 2, pseudogene)	1	2.08	17.6	inactive
CENPBD2P (CENPB DNA-binding domains containing 2, pseudogene)	2	1.6	14.2	inactive
CENPBD2P (CENPB DNA-binding domains containing 2, pseudogene)	3	0.437	6.04	inactive
ABHD16A (abhydrolase domain containing 16A, phospholipase)	1	0.446	6.11	inactive
ABHD16A (abhydrolase domain containing 16A, phospholipase)	2	-0.567	-1.02	inactive
ABHD16A (abhydrolase domain containing 16A, phospholipase)	3	0.0151	3.07	inactive
ICMT (isoprenylcysteine carboxyl methyltransferase)	1	1.3	12.1	inactive
ICMT (isoprenylcysteine carboxyl methyltransferase)	2	2.33	19.4	inactive
ICMT (isoprenylcysteine carboxyl methyltransferase)	3	0.51	6.56	inactive
ZNF276 (zinc finger protein 276)	1	0.233	4.6	inactive
ZNF276 (zinc finger protein 276)	2	1.48	13.4	inactive
ZNF276 (zinc finger protein 276)	3	-0.256	1.16	inactive
GBA1 (glucosylceramidase beta 1)	1	3.22	25.6	inactive
GBA1 (glucosylceramidase beta 1)	2	5.62	42.5	active
GBA1 (glucosylceramidase beta 1)	3	9.7	71.2	active
SLC31A1	1	0.635	7.44	inactive
SLC31A1	2	3.03	24.3	inactive
SLC31A1	3	2.3	19.2	inactive
DTWD2 (DTW motif tRNA-uridine aminocarboxypropyltransferase 2)	1	1.91	16.4	inactive
DTWD2 (DTW motif tRNA-uridine aminocarboxypropyltransferase 2)	2	-0.00851	2.91	inactive
DTWD2 (DTW motif tRNA-uridine aminocarboxypropyltransferase 2)	3	0.337	5.34	inactive
SMIM26 (small integral membrane protein 26)	1	-0.72	-2.1	inactive
SMIM26 (small integral membrane protein 26)	2	-0.229	1.36	inactive
SMIM26 (small integral membrane protein 26)	3	-0.632	-1.48	inactive
LBR (lamin B receptor)	1	-0.0828	2.38	inactive
LBR (lamin B receptor)	2	1.92	16.5	inactive
LBR (lamin B receptor)	3	1.24	11.7	inactive
RFXANK (regulatory factor X associated ankyrin containing protein)	1	-0.165	1.81	inactive
RFXANK (regulatory factor X associated ankyrin containing protein)	2	-1.18	-5.34	inactive
RFXANK (regulatory factor X associated ankyrin containing protein)	3	0.0164	3.08	inactive
ACTG1 (actin gamma 1)	1	-0.842	-2.96	inactive
ACTG1 (actin gamma 1)	2	-1.02	-4.18	inactive
ACTG1 (actin gamma 1)	3	1.22	11.5	inactive
RAB2B (RAB2B, member RAS oncogene family)	1	0.0696	3.46	inactive
RAB2B (RAB2B, member RAS oncogene family)	2	-0.525	-0.723	inactive
RAB2B (RAB2B, member RAS oncogene family)	3	-0.756	-2.35	inactive
IFI44 (interferon induced protein 44)	1	0.302	5.09	inactive
IFI44 (interferon induced protein 44)	2	-0.592	-1.2	inactive
IFI44 (interferon induced protein 44)	3	3.39	26.8	inactive
DRD4 (dopamine receptor D4)	1	-0.567	-1.02	inactive
DRD4 (dopamine receptor D4)	2	0.105	3.71	inactive
DRD4 (dopamine receptor D4)	3	-0.456	-0.238	inactive
